In publication doi:10.1101/2023.10.09.561567 (bioRxiv, 2023):
No constants are given. Whether binding was seen depends on the method and setting. For some assays here: A result given as binding can be weak or reduced; the word gives no strength.

Experiments:
[1] = target: T1, mouse ST2 ectodomain (mouse) (UniProt P14719); assay: SEC
T1 sequence: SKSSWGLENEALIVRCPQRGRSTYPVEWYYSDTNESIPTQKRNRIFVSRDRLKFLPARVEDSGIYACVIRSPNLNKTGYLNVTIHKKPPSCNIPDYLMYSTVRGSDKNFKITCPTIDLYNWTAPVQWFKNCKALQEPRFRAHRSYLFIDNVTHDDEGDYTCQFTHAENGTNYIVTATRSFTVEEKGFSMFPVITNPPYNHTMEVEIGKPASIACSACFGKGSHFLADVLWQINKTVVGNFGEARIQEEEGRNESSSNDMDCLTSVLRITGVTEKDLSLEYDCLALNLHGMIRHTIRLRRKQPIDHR

[2] = target: T1, mouse ST2 ectodomain (mouse); assay: condition: 20 μM mST2 ectodomain with 25 μM HpARI2:mIL33

Substance	binding [1]	binding [2]
HpARI3:mIL33 complex (Heligmosomoides polygyrus bakeri | mouse)	binds	
HpARI2:mIL33 complex (Heligmosomoides polygyrus bakeri | mouse)		no binding
